The other results are listed elsewhere or left out.
Compound: Cc1cc(ccc1-c1ccccc1)C(=O)N1CCCN(CC1)C(=O)CCl [compound 10]
Experiment: probe-labelled cysteine peptide fold change vs DMSO (competition) (log2 fold change); higher = less target engagement (more negative = stronger competition)
Settings: THP-1, incubation time: 4 h
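Further: competitive profiling in live THP-1 cells: cysteine peptides tagged with an iodoacetamide desthiobiotin (IA-DTB) probe, intensity after compound treatment relative to DMSO-treated cells.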

Chains of the proteins cited; added tags and fusions are not shown. Lines headed by an entry give the natural chain unless they say otherwise; changes in a name come on top.
UniProt Q15003, whole entry, looked up: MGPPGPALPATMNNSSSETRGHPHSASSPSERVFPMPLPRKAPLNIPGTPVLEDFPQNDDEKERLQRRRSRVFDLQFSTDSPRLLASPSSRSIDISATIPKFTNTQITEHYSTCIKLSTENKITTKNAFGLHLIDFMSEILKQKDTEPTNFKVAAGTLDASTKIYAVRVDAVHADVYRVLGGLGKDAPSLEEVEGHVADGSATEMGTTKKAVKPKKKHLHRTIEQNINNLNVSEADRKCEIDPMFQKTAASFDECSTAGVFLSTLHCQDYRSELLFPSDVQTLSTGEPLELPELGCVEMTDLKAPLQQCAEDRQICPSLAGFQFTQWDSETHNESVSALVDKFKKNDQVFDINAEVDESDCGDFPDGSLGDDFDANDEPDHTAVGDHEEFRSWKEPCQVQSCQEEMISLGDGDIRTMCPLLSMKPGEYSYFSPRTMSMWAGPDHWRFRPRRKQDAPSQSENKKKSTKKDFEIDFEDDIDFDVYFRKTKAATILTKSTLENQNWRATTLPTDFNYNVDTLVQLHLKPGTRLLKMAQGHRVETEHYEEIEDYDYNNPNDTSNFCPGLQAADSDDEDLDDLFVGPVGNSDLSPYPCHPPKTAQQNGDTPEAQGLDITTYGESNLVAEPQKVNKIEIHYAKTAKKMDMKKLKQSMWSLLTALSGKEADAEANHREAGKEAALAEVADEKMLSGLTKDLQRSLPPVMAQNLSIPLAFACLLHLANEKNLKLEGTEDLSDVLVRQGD
UniProt Q13459: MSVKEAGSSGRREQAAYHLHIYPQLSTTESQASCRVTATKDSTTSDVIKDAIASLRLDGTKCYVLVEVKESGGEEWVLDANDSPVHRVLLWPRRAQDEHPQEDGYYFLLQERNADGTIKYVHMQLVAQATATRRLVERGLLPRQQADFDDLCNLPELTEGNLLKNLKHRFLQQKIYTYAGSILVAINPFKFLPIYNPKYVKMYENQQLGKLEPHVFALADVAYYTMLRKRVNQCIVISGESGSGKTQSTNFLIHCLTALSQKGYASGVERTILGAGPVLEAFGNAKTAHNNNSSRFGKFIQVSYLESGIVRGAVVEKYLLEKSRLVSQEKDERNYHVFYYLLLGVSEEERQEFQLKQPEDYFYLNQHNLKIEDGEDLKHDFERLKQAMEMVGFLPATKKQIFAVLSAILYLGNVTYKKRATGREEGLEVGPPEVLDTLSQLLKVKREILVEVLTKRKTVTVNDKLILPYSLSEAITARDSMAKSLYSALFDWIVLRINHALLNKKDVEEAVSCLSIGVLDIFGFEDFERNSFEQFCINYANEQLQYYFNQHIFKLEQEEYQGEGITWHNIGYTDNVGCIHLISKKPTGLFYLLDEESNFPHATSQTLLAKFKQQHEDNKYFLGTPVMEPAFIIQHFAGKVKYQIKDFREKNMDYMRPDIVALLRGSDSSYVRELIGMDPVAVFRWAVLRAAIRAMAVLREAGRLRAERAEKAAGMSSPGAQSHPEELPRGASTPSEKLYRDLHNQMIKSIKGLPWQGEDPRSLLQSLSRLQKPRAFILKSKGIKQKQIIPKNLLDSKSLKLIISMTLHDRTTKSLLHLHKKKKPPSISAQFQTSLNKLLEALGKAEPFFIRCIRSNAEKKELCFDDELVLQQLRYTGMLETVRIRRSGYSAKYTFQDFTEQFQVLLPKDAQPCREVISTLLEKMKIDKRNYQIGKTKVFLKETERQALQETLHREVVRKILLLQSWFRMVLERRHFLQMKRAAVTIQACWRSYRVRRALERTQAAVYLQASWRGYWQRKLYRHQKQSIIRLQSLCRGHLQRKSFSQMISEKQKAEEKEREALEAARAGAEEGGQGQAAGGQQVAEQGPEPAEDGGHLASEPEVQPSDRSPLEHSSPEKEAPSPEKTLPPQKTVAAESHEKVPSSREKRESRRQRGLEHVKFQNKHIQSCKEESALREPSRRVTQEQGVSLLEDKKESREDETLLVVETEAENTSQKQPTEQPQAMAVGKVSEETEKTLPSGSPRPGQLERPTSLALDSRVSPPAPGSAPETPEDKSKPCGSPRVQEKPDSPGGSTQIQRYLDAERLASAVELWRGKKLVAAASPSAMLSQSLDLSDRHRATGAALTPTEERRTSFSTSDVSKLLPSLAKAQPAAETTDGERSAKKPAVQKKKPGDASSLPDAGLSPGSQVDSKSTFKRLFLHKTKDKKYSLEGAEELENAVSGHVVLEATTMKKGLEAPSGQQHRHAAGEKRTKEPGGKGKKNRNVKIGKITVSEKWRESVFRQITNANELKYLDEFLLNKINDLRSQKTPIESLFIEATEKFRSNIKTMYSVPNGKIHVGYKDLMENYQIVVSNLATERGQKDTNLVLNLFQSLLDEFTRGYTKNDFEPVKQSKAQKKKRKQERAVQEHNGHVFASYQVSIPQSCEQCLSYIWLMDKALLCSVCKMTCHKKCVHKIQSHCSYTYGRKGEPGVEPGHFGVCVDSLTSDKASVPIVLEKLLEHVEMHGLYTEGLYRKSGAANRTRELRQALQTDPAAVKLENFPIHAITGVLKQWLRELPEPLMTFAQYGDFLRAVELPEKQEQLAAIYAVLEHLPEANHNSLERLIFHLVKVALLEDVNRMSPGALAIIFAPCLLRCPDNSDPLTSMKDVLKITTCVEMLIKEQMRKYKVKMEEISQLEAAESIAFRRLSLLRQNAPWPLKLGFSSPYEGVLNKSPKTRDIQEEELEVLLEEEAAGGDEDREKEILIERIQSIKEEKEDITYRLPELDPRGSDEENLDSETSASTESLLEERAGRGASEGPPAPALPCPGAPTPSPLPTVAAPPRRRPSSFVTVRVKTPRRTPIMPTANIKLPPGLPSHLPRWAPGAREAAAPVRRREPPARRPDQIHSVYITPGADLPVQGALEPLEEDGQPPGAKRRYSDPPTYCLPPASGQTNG
UniProt Q6IBW4: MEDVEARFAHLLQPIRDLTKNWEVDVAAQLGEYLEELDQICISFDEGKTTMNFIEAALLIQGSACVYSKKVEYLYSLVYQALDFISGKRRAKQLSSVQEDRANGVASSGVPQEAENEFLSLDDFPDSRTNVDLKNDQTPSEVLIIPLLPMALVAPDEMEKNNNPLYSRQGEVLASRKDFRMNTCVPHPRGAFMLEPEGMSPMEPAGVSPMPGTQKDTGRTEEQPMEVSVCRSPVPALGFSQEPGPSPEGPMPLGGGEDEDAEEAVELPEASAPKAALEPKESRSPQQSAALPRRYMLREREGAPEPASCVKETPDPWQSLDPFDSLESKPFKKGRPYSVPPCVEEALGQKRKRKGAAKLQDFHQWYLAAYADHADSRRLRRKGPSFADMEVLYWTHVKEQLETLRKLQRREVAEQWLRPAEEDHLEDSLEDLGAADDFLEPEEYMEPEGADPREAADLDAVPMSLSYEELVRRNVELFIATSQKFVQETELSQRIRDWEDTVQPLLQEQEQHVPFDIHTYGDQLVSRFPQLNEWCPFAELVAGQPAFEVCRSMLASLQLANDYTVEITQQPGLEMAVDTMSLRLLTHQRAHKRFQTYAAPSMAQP
UniProt Q9NZM1: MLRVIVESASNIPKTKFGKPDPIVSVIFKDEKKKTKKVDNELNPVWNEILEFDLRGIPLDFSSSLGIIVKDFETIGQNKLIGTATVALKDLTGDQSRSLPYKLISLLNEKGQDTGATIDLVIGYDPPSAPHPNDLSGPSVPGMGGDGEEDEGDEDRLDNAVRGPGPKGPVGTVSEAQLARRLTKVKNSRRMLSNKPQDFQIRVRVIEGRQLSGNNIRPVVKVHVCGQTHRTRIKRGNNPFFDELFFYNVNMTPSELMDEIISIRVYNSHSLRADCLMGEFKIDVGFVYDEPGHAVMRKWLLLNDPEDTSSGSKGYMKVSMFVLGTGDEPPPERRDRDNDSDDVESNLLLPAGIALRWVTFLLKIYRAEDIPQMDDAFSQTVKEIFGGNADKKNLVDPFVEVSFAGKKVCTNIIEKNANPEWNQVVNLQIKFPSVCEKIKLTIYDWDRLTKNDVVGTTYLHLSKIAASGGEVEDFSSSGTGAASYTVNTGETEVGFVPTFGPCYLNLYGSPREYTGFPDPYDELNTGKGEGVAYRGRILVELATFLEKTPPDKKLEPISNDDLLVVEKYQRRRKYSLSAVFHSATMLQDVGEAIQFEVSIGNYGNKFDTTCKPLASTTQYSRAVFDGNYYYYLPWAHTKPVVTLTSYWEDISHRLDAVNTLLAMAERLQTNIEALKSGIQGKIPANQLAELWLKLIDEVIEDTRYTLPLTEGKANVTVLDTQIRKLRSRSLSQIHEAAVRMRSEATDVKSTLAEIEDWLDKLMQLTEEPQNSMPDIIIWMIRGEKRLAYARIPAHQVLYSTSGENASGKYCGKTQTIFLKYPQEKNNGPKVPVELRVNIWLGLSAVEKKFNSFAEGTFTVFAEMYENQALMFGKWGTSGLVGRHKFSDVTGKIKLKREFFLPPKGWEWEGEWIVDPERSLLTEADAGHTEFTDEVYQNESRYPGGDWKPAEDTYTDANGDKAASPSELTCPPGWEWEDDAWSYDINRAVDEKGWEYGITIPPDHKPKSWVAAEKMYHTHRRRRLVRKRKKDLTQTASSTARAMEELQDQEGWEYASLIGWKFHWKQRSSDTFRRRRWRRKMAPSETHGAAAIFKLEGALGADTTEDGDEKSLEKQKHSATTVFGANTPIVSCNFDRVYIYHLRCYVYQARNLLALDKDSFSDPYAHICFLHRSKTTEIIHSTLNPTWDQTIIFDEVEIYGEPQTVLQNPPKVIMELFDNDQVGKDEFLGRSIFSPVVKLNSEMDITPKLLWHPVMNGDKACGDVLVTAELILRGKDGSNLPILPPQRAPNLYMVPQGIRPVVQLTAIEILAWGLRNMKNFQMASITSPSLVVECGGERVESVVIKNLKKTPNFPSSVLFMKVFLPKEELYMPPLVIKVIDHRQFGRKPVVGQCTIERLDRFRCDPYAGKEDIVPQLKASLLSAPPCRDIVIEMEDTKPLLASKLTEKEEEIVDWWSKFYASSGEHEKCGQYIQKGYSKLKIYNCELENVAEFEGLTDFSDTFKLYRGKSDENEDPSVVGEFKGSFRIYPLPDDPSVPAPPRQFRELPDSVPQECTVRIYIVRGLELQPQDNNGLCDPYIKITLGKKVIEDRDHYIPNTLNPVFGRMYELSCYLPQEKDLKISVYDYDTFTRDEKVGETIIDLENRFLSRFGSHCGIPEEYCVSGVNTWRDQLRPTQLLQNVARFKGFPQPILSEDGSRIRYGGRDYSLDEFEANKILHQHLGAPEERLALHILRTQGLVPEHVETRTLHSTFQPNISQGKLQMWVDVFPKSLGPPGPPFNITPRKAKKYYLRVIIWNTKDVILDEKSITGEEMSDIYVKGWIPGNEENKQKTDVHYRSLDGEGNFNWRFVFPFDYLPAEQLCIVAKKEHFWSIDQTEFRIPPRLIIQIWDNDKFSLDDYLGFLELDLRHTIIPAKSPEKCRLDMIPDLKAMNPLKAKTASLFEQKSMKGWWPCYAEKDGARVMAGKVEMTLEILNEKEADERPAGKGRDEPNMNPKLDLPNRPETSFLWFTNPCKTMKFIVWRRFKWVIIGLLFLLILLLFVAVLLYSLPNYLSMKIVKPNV
UniProt Q4G0N4: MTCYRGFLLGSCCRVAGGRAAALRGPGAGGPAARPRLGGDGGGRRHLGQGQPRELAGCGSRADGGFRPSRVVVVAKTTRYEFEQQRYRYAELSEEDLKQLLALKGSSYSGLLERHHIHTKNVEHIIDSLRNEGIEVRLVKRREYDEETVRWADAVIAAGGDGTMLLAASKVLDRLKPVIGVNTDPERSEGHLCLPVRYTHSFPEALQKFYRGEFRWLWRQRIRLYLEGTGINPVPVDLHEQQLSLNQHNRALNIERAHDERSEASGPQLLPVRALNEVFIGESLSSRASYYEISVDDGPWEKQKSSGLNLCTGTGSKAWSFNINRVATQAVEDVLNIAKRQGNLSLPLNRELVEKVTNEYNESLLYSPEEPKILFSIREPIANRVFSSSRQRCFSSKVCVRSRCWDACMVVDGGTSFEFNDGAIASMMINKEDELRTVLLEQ
UniProt Q6PIU2: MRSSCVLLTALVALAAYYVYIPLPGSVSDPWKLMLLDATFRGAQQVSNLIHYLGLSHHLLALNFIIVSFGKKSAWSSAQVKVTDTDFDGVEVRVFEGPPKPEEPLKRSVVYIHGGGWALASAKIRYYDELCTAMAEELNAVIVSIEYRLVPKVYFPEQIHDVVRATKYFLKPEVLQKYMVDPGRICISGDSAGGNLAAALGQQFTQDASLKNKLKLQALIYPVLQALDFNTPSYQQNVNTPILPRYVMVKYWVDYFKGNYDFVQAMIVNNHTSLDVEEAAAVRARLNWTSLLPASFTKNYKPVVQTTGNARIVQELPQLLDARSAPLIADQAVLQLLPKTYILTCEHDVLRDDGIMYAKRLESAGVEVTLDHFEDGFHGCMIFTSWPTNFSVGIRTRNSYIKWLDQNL

Target	probe-labelled cysteine peptide fold change (10 µM)	probe-labelled cysteine peptide fold change (50 µM)
NCAPH_Q15003_239_CEIDPMFQK (UniProt Q15003)	-0.0722	-0.205
MYO9B_Q13459_234_RVNQCIVISGESGSGK (UniProt Q13459)	0.0998	0.311
NBEAL2_Q6ZNJ1_1491_GQVFSVLTQLGASATLVRPPDCIK (UniProt Q6ZNJ1)	-0.137	0.129
NCAPD2_Q15021_772_CSSVMLLGMMAR (UniProt Q15021)	0.0479	0.226
MYO9B_Q13459_863_KELCFDDELVLQQLR (UniProt Q13459)	-0.207	0.182
NCAPD3_P42695_588_EDLWILQDQCR (UniProt P42695)	0.208	0.563
MYO18A_Q92614_1699_NQLEESEFTCAAAVK (UniProt Q92614)	-0.177	-0.086
NCAPH_Q15003_397_EPCQVQSCQEEMISLGDGDIR (UniProt Q15003)	-0.654	-0.767
MYO6_Q9UM54_375_SAQSLEYCAELLGLDQDDLR (UniProt Q9UM54)	-0.143	-0.375
NCDN_Q9UBB6_415_EVCQLLPFLVR (UniProt Q9UBB6)	0.022	0.174
NCAPH2_Q6IBW4_309_EREGAPEPASCVK (UniProt Q6IBW4)	-0.225	-0.254
NANS_Q9NR45_184_PLNPNFCFLQCTSAYPLQPEDVNLR (UniProt Q9NR45)	0.154	0.204
MYOF_Q9NZM1_969_AASPSELTCPPGWEWEDDAWSYDINR (UniProt Q9NZM1)	0.162	0.483
NADK2_Q4G0N4_193_LKPVIGVNTDPERSEGHLCLPVR (UniProt Q4G0N4)	-0.0613	0.021
NCEH1_Q6PIU2_345_TYILTCEHDVLRDDGIMYAK (UniProt Q6PIU2)	0.158	0.0255
MYOF_Q9NZM1_1425_ASLLSAPPCR (UniProt Q9NZM1)	-0.131	-0.138
NAA10_P41227_21_NARPEDLMNMQHCNLLCLPENYQMK (UniProt P41227)	0.122	-0.163

Laid out differently: results already given
NADK2_Q4G0N4_193_LKPVIGVNTDPERSEGHLCLPVR (UniProt Q4G0N4)
  probe-labelled cysteine peptide fold change (10 µM): -0.0613
  probe-labelled cysteine peptide fold change (50 µM): 0.021
MYOF_Q9NZM1_1425_ASLLSAPPCR (UniProt Q9NZM1)
  probe-labelled cysteine peptide fold change (10 µM): -0.131
  probe-labelled cysteine peptide fold change (50 µM): -0.138

Reference: the supplement of paper PMC12067093, “Discovery and optimisation of a covalent ligand for TRIM25 and its application to targeted protein ubiquitination” (Chemical Science, 2025)
